According to PubChem BioAssay AID248 (DTP/NCI, 2004):
The list shows only some results of the screen, not a fair sample: it gathers tests that were run many times, whatever their T/C, doses with no T/C, and many T/C values between a quarter and a half above the control. Further doses and runs are listed elsewhere. T/C: endpoint of the treated group in % of that of the vehicle group. Some entries give survivors of the animals treated and no T/C: the source holds a T/C of zero for them, seemingly a mark for toxic or unscored doses. Some doses without a T/C left all or most animals alive at the check, yet need not have been tolerated: survival well below the control is almost never listed, so the zero probably covers shortened survival too. Counts of survivors are from the toxicity check (mostly the fifth day) where no day follows; animals may have died later. Schedule codes are those of the source, read here as Q, the interval in days (D) or hours (H), X, the number of doses. Some entries were tested several times; the values are given in rising order. Where survival is the endpoint, the PubChem record calls one and a half times the control and up active, and a quarter to a half above the control has no call in these data; cut-offs in other NCI protocols can differ.

Tested on: L1210 leukemia ip in BDF1 mice, survival T/C
Assay: NCI In Vivo Anticancer Drug Screen. Data for tumor model L1210 Leukemia (intraperitoneal) in B6D2F1 (BDF1) mice
Details: higher T/C = longer survival
[1] = T/C endpoint: mean survival time, dose: 100.0 mg/kg/injection, schedule: Q01DX001 (ip), vehicle: saline
[2] = T/C endpoint: mean survival time, dose: 200.0 mg/kg/injection, schedule: Q01DX001 (ip), vehicle: saline
[3] = T/C endpoint: mean survival time, dose: 400.0 mg/kg/injection, schedule: Q01DX001 (ip), vehicle: saline
[4] = T/C endpoint: mean survival time, dose: 400.0 mg/kg/injection, schedule: Q04DX003 (ip), vehicle: saline with Tween-80
[5] = T/C endpoint: mean survival time, dose: 400.0 mg/kg/injection, schedule: Q01DX001 (ip), vehicle: saline with Tween-80
[6] = T/C endpoint: mean survival time, dose: 400.0 mg/kg/injection, schedule: Q04DX003 (ip), vehicle: saline
[7] = T/C endpoint: mean survival time, dose: 300.0 mg/kg/injection, schedule: Q01DX001 (ip), vehicle: other

O=c1[nH]cnc2nncnc12 was tested, and the survivor count (T/C endpoint: mean survival time, dose: 100.0 mg/kg/injection, schedule: Q01DX001 (ip), vehicle: carboxymethylcellulose (CMC)) was 0 of 4, the survivor count (T/C endpoint: mean survival time, dose: 200.0 mg/kg/injection, schedule: Q01DX001 (ip), vehicle: carboxymethylcellulose (CMC)) was 0 of 4 and the survivor count (T/C endpoint: mean survival time, dose: 400.0 mg/kg/injection, schedule: Q01DX001 (ip), vehicle: carboxymethylcellulose (CMC)) was 0 of 4.
CCOC(=O)CC1NCCc2c1[nH]c1ccccc21 (stereo not drawn) was tested, and the survivor count [1] was 0 of 6, the survivor count [2] was 0 of 6 and the survivor count [3] was 0 of 6.
For CC[C@@]1(O)C[C@H](OC2CC(N(C)C)C(O)C(C)O2)c2c(O)c3c(c(O)c2[C@H]1OC1CC(N(C)C)C(O)C(C)O1)C(=O)c1cccc(O)c1C3=O (stereo partly drawn), the survivor count (T/C endpoint: mean survival time, dose: 1.0 mg/kg/injection, schedule: Q01DX009 (ip), vehicle: saline) was 6 of 6, the survivor count (T/C endpoint: mean survival time, dose: 2.0 mg/kg/injection, schedule: Q01DX009 (ip), vehicle: saline) was 4 of 6 and the survivor count (T/C endpoint: mean survival time, dose: 4.0 mg/kg/injection, schedule: Q01DX009 (ip), vehicle: saline) was 1 of 6.
In the case of COC(=O)C1OCOC2C(CO)OCOC12 (stereo not drawn), the survivor count [4] is reported as 6 of 6.
CN(C)CCCN1CCC2(CC[Si](C)(C)CC2)C1 was tested, and the survivor count [2] was 4 of 4 and the survivor count [3] was 0 of 4.
In the case of Cc1nc2nc(N)nc(N)c2nc1CNc1ccc(C(=O)NC(CCC(=O)O)C(=O)O)cc1 (stereo not drawn), the T/C (T/C endpoint: median survival time, dose: 39.0 mg/kg/injection, schedule: Q01DX009 (ip), vehicle: other) is reported as 130 % of control.
CCOc1ccc(NC(=O)OCCN2CCN(CCc3ccccc3)C(C)C2)cc1 (stereo not drawn) was tested, and the survivor count [3] was 1 of 4.
C=C1CC(=O)N(c2ccc(Cl)cc2)C1=O was tested, and the survivor count (T/C endpoint: mean survival time, dose: 100.0 mg/kg/injection, schedule: Q01DX001 (ip), vehicle: saline with Tween-80) was 3 of 6, the survivor count (T/C endpoint: mean survival time, dose: 200.0 mg/kg/injection, schedule: Q01DX001 (ip), vehicle: saline with Tween-80) was 1 of 6 and the survivor count [5] was 0 of 6.
With CC(=O)SC(C)CC(=O)O (stereo not drawn) the survivor count [6] was 1 of 6.
With CCCC(O)(CCC)C(=O)O the survivor count [3] was 2 of 3.
For CC1(C)OC2C(CNCCCl)OC(OCc3ccccc3)C2O1 (stereo not drawn), the survivor count (T/C endpoint: mean survival time, dose: 200.0 mg/kg/injection, schedule: Q04DX003 (ip), vehicle: saline) was 3 of 6 and the survivor count [6] was 0 of 6.
OCC(O)COc1ccc(Cl)cc1Cl (stereo not drawn) was tested, and the survivor count (T/C endpoint: mean survival time, dose: 400.0 mg/kg/injection, schedule: Q01DX009 (ip), vehicle: saline with Tween-80) was 1 of 6.
With OC1OC(COCc2ccccc2)C(OCc2ccccc2)C1OCc1ccccc1 (stereo not drawn) the survivor count [5] was 3 of 3.
For NC(=O)c1[nH]cnc1/N=N/N(CCF)CCF, the T/C (T/C endpoint: mean survival time, dose: 7.5 mg/kg/injection, schedule: Q01DX009 (ip), vehicle: other) was 148 % of control, the T/C (T/C endpoint: mean survival time, dose: 20.0 mg/kg/injection, schedule: Q01DX001 (ip), vehicle: other) was 127 % of control and the survivor count (T/C endpoint: mean survival time, dose: 40.0 mg/kg/injection, schedule: Q01DX001 (ip), vehicle: other) was 3 of 5. For the same compound, the survivor count (T/C endpoint: mean survival time, dose: 75.0 mg/kg/injection, schedule: Q01DX001 (ip), vehicle: other) was 0 of 6, the survivor count (T/C endpoint: mean survival time, dose: 150.0 mg/kg/injection, schedule: Q01DX001 (ip), vehicle: other) was 0 of 6 and the survivor count [7] was 0 of 6.
With O=C/C(Br)=C(\Br)C(=O)O the survivor count (T/C endpoint: mean survival time, dose: 12.5 mg/kg/injection, schedule: Q01DX009 (ip), vehicle: carboxymethylcellulose (CMC)) was 3 of 3, the survivor count (T/C endpoint: mean survival time, dose: 12.5 mg/kg/injection, schedule: Q04DX002 (ip), vehicle: carboxymethylcellulose (CMC)) was 3 of 3 and the survivor count (T/C endpoint: mean survival time, dose: 50.0 mg/kg/injection, schedule: Q01DX009 (ip), vehicle: carboxymethylcellulose (CMC)) was 3 of 3. For the same compound, the survivor count (T/C endpoint: mean survival time, dose: 50.0 mg/kg/injection, schedule: Q04DX002 (ip), vehicle: carboxymethylcellulose (CMC)) was 3 of 6, the survivor count (T/C endpoint: mean survival time, dose: 50.0 mg/kg/injection, schedule: Q04DX003 (ip), vehicle: carboxymethylcellulose (CMC)) was 0 of 6 and the survivor count (T/C endpoint: mean survival time, dose: 100.0 mg/kg/injection, schedule: Q04DX002 (ip), vehicle: carboxymethylcellulose (CMC)) was 0 of 3 and 1 of 6. The survivor count (T/C endpoint: mean survival time, dose: 200.0 mg/kg/injection, schedule: Q04DX002 (ip), vehicle: carboxymethylcellulose (CMC)) was 0 of 3 and 1 of 6 and the survivor count (T/C endpoint: mean survival time, dose: 400.0 mg/kg/injection, schedule: Q04DX002 (ip), vehicle: carboxymethylcellulose (CMC)) was 0 of 3 and 0 of 6.
With CS(=O)(=O)NN the survivor count (T/C endpoint: mean survival time, dose: 100.0 mg/kg/injection, schedule: Q01DX009 (ip), vehicle: saline) was 0 of 6, the survivor count [2] was 0 of 4 and 0 of 6 and the survivor count [3] was 0 of 4.
CSc1ccc(OC(=O)Nc2cc(C)ccc2C)cc1 was tested, and the survivor count (T/C endpoint: mean survival time, dose: 400.0 mg/kg/injection, schedule: Q01DX009 (ip), vehicle: Klucel (hydroxypropylcellulose) (HPC)) was 6 of 6.
In the case of C[CH2][Sb]([Cl])([CH2]C)([CH2]C)[O][Sb]([Cl])([CH2]C)([CH2]C)[CH2]C, the survivor count [1] is reported as 0 of 6, the survivor count [2] is reported as 0 of 6 and the survivor count [3] is reported as 0 of 6.
With CN(C)c1ccc(C=NCCCO)cc1 the survivor count (T/C endpoint: mean survival time, dose: 400.0 mg/kg/injection, schedule: Q04DX002 (ip), vehicle: saline with Tween-80) was 1 of 3.
For CC1(O)C=Cc2ccccc21 (stereo not drawn), the survivor count [4] was 3 of 3.
O=C1Oc2ccccc2C1=O was tested, and the survivor count [7] was 2 of 6 and the survivor count [6] was 6 of 6.
In the case of N=[N+]=CC(=O)CC(N)C(=O)O (stereo not drawn), the survivor count (T/C endpoint: mean survival time, dose: 32.0 mg/kg/injection, schedule: Q03HX024 (ip), vehicle: saline) is reported as 10 of 10, the survivor count (T/C endpoint: mean survival time, dose: 64.0 mg/kg/injection, schedule: Q03HX024 (ip), vehicle: saline) is reported as 10 of 10 and the T/C (T/C endpoint: mean survival time, dose: 256.0 mg/kg/injection, schedule: Q03HX024 (ip), vehicle: saline) is reported as 148 % of control. For the same compound, the T/C (T/C endpoint: mean survival time, dose: 400.0 mg/kg/injection, schedule: Q01DX009 (ip), vehicle: saline) was 129 and 136 % of control, the T/C (T/C endpoint: mean survival time, dose: 600.0 mg/kg/injection, schedule: Q01DX009 (ip), vehicle: saline) was 148 % of control and the survivor count (T/C endpoint: mean survival time, dose: 2048.0 mg/kg/injection, schedule: Q04DX003 (ip), vehicle: saline) was 6 of 10.
For CCCCCCCCCCCC[n+]1c(C)cc(N)c2ccccc21, the survivor count (T/C endpoint: mean survival time, dose: 9.5 mg/kg/injection, schedule: Q01DX001 (ip), vehicle: other) was 6 of 6, the survivor count (T/C endpoint: mean survival time, dose: 19.0 mg/kg/injection, schedule: Q01DX001 (ip), vehicle: other) was 2 of 6 and the survivor count (T/C endpoint: mean survival time, dose: 38.0 mg/kg/injection, schedule: Q01DX001 (ip), vehicle: other) was 0 of 6.
Cc1ccc(NC(=S)NNC(=S)NNc2ccccc2)cc1 was tested, and the survivor count (T/C endpoint: mean survival time, dose: 400.0 mg/kg/injection, schedule: Q04DX002 (ip), vehicle: Klucel (hydroxypropylcellulose) (HPC)) was 3 of 3.
In the case of CC(=[N-])CC(C)=O.CC(=[N-])CC(C)=O.[Ni+2], the survivor count (T/C endpoint: mean survival time, dose: 25.0 mg/kg/injection, schedule: Q04DX003 (ip), vehicle: Klucel (hydroxypropylcellulose) (HPC)) is reported as 3 of 6, the survivor count (T/C endpoint: mean survival time, dose: 50.0 mg/kg/injection, schedule: Q01DX001 (ip), vehicle: Klucel (hydroxypropylcellulose) (HPC)) is reported as 3 of 6 and the survivor count (T/C endpoint: mean survival time, dose: 100.0 mg/kg/injection, schedule: Q01DX001 (ip), vehicle: Klucel (hydroxypropylcellulose) (HPC)) is reported as 0 of 6. The survivor count (T/C endpoint: mean survival time, dose: 200.0 mg/kg/injection, schedule: Q01DX001 (ip), vehicle: Klucel (hydroxypropylcellulose) (HPC)) was 0 of 6 and the survivor count (T/C endpoint: mean survival time, dose: 400.0 mg/kg/injection, schedule: Q01DX001 (ip), vehicle: Klucel (hydroxypropylcellulose) (HPC)) was 0 of 6.
